# From the supplement of paper PMC6411743
# Protein sequences, listed by entry. Tags and fused reporters are not part of them. Lines headed by an entry give the natural chain unless they say otherwise; changes in a name come on top.
# UniProt Q6AI12: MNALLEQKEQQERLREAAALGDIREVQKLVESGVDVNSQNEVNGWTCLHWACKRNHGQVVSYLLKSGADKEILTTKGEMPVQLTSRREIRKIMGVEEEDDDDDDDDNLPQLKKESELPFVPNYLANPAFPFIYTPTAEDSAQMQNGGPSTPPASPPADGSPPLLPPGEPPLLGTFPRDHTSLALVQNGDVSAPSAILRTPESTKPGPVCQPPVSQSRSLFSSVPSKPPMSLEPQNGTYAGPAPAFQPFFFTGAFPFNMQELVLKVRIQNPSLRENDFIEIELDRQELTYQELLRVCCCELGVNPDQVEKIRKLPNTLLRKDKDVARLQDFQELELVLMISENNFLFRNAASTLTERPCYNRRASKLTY
# UniProt Q8IX01: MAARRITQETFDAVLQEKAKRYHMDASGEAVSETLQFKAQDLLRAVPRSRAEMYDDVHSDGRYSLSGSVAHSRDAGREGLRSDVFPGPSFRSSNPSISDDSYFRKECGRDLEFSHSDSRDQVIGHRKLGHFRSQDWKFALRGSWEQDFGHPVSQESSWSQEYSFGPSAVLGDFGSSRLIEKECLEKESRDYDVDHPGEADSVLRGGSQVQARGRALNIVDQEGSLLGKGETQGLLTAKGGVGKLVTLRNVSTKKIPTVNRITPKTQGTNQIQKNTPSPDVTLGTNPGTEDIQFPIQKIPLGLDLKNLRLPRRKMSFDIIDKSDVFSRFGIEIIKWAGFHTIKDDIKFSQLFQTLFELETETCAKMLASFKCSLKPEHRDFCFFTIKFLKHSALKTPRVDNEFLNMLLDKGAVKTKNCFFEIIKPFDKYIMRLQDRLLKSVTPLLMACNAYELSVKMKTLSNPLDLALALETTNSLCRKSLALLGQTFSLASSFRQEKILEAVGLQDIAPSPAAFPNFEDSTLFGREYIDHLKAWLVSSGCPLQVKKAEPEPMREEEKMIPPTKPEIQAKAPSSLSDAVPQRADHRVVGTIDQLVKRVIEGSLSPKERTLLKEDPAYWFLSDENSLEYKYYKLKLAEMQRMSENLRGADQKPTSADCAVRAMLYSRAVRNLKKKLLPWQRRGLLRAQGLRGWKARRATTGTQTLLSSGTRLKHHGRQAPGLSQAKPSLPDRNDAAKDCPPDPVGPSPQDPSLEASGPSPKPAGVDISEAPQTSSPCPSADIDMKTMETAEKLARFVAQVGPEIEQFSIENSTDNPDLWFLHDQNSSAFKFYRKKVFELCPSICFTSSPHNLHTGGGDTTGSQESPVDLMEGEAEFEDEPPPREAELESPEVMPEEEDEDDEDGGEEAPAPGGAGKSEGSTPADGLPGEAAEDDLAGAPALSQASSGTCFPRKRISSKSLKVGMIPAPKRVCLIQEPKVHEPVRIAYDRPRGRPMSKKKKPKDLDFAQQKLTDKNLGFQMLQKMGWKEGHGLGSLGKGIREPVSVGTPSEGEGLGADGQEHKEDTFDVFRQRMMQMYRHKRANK
# UniProt O43736: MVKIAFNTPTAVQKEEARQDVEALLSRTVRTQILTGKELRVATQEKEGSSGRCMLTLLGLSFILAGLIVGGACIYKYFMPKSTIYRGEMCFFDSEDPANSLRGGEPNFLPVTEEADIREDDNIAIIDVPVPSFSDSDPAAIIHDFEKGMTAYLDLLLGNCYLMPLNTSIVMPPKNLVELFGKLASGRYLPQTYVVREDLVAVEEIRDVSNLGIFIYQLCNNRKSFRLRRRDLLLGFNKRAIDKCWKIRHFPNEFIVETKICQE
# UniProt O15212, whole entry: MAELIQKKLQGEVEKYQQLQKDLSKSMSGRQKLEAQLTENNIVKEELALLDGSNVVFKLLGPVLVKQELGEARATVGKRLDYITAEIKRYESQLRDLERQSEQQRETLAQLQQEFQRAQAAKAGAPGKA
# UniProt O00115: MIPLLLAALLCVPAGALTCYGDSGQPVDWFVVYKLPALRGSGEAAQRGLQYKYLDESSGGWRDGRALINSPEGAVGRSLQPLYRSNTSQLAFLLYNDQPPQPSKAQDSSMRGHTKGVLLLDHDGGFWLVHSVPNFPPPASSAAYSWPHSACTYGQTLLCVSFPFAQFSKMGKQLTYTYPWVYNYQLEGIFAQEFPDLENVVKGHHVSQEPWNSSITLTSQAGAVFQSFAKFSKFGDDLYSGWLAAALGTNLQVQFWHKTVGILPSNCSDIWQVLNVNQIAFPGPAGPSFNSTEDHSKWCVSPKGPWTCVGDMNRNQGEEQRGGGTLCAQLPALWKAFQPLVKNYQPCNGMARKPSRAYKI
# UniProt O43819: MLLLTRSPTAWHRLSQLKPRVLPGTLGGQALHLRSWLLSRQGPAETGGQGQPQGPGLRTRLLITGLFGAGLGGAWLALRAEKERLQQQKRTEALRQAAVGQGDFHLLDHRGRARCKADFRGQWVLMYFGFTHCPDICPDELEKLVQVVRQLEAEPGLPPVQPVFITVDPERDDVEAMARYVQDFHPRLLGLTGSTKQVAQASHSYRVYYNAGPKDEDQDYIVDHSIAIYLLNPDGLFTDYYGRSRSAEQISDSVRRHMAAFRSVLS
# UniProt O15118: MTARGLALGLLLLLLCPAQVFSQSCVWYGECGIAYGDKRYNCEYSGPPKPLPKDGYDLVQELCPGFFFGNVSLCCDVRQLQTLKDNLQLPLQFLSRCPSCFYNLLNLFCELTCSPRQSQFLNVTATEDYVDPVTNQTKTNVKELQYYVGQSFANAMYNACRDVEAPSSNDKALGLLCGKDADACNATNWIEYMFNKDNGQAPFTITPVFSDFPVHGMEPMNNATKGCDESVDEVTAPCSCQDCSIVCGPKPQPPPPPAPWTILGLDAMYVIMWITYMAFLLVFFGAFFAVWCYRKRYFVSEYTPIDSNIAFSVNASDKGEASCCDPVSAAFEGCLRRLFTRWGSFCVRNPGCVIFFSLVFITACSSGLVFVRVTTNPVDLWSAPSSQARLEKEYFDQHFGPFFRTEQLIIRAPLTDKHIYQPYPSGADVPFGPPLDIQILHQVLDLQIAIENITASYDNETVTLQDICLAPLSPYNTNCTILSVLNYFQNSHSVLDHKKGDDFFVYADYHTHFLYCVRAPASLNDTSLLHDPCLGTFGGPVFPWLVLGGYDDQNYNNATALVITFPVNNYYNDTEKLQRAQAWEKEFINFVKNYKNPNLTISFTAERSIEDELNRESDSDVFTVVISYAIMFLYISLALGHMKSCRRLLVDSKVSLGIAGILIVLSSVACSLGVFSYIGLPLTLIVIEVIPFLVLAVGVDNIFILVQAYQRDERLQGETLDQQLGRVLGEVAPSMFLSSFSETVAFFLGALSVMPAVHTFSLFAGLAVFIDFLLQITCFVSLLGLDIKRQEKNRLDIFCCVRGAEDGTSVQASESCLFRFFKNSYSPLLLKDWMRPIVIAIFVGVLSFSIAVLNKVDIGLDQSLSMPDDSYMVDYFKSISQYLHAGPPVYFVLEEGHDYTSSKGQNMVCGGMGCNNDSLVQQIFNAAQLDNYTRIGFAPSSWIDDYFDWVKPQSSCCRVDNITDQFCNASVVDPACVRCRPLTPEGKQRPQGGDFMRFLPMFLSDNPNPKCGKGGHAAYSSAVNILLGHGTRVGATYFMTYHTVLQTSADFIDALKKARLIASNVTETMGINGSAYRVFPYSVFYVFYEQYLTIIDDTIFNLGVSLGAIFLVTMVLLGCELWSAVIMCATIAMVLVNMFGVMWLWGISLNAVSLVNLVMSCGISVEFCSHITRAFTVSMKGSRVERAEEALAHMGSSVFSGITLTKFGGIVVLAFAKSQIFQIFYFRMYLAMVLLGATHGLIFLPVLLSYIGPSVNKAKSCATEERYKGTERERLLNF
# UniProt P53680: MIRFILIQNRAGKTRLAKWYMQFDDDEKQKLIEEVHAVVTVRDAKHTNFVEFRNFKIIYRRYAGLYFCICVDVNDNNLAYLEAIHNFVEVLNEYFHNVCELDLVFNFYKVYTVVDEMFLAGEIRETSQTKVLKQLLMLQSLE
# UniProt O00442: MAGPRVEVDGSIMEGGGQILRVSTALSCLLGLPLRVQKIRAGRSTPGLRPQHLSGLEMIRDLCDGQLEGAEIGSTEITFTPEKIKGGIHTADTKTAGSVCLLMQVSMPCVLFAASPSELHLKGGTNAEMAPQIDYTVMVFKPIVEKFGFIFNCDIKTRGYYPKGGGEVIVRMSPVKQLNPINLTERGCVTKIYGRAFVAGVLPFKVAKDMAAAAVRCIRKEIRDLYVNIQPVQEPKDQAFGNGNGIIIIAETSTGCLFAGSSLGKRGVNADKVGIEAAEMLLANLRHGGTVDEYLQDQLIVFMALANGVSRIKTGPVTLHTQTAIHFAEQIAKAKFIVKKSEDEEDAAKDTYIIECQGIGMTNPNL
# UniProt Q9C0C9: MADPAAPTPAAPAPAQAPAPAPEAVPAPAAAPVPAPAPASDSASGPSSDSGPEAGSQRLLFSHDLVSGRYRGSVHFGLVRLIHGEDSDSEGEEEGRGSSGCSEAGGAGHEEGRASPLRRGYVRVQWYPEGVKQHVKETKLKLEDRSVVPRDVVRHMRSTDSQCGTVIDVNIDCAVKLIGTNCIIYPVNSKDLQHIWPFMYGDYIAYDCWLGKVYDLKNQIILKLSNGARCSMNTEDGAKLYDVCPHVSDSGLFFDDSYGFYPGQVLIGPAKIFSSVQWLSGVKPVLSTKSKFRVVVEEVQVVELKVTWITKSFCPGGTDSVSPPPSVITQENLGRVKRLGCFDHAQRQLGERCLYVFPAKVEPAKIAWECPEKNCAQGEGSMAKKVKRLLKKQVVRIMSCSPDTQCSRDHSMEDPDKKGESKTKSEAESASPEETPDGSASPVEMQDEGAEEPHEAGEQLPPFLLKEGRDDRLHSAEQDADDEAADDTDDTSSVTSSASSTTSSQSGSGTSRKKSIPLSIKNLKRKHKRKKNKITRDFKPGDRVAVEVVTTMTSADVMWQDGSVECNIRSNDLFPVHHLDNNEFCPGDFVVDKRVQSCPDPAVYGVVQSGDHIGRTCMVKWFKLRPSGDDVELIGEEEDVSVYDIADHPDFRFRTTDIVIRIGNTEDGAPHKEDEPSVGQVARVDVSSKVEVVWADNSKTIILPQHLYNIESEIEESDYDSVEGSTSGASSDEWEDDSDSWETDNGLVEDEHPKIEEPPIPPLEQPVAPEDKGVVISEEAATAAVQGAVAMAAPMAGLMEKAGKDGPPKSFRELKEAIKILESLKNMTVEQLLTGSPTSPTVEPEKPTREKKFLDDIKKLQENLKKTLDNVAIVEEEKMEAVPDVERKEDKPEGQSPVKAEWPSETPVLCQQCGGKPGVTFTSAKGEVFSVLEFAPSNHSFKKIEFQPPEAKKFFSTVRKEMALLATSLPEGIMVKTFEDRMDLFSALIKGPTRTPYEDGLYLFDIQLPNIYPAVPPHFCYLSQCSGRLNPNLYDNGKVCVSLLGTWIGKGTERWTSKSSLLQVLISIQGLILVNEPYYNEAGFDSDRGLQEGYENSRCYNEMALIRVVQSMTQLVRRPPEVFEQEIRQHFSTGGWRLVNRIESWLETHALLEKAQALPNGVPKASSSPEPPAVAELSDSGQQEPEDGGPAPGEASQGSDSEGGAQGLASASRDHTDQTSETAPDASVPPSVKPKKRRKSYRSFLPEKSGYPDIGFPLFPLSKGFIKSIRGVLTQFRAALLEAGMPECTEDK
# UniProt O00418: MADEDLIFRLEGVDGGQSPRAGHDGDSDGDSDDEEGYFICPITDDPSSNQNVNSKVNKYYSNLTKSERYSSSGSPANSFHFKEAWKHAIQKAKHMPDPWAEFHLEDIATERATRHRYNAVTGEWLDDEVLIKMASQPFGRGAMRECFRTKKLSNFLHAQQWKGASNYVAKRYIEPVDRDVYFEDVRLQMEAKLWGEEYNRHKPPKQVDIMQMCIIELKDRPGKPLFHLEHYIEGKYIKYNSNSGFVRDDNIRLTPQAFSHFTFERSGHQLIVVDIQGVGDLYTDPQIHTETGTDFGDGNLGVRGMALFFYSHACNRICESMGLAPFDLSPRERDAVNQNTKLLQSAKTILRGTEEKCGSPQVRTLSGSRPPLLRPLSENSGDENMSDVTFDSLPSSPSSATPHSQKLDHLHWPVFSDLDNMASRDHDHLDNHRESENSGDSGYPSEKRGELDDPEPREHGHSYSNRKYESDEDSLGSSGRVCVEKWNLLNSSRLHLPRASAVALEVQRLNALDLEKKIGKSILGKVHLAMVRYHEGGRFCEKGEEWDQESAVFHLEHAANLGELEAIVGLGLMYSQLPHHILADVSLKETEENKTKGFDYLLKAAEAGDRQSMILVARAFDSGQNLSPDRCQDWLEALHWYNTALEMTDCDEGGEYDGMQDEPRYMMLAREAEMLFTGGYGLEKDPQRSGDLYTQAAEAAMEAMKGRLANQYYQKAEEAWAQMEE
# UniProt O00233: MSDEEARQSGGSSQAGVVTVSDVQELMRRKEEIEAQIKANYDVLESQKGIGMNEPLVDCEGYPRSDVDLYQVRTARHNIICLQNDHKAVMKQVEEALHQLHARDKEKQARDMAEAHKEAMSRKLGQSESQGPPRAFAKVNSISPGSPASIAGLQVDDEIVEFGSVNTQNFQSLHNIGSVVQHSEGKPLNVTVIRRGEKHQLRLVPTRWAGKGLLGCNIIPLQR
# ± gives the standard deviation of the averaged measurements. The entries are a selection whose mix differs from that of the whole data set.
# Compound: Nc1ncnc2c1ncn2[C@@H]1O[C@H](COP(=O)(O)OP(=O)(O)NP(=O)(O)O)[C@@H](O)[C@H]1O [adenylyl imidodiphosphate]
# Experiment: NP40-soluble protein abundance relative to vehicle (solubility fold change) (ratio); higher = more soluble protein in presence of AMP-PNP
# Outline: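 In three independent experiments, Jurkat crude lysate made by Dounce homogenisation was treated for 10 min at room temperature and then 3 min at 37 °C with eight concentrations ranging from 0.1 to 10 mM. It was then solubilised with 0.8% NP40 plus benzonase for 60 min at 4 °C and ultracentrifuged. The supernatant was TMT-labelled for LC-MS/MS, and each value is the fold change against the detergent-processed vehicle for the same replicate, using vsn-normalised intensities.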
Target,NP40-soluble protein abundance (concentration: 1mM),NP40-soluble protein abundance (concentration: 2mM),NP40-soluble protein abundance (concentration: 4mM),NP40-soluble protein abundance (concentration: 6mM),NP40-soluble protein abundance (concentration: 8mM),NP40-soluble protein abundance (concentration: 10mM)
UniProt O14617 and related entries,0.999 ± 0.033,1.03 ± 0.042,1.01 ± 0.015,1.03 ± 0.029,1.01 ± 0.039,1.02 ± 0.016
K7ERW4 and related entries (UniProt Q6AI12),0.982 ± 0.051,0.986 ± 0.018,0.996 ± 0.02,0.9797 ± 0.0069,0.978 ± 0.027,0.9742 ± 0.0063
M0R2Z9 and related entries (UniProt Q8IX01),1.03 ± 0.061,1.05 ± 0.019,1.01 ± 0.037,1 ± 0.046,0.977 ± 0.036,0.995 ± 0.07
NDUFS4 (UniProt O43181),0.96 ± 0.013,0.958 ± 0.023,0.935 ± 0.044,0.922 ± 0.07,0.923 ± 0.11,0.915 ± 0.081
UniProt O43439-5,1.01 ± 0.021,1.014 ± 0.0005,1 ± 0.054,0.96 ± 0.026,0.954 ± 0.021,0.963 ± 0.041
UniProt O43524 and related entries,0.988 ± 0.055,1.021 ± 0.0014,0.965 ± 0.011,0.9882 ± 0.0051,0.9824 ± 0.0098,0.9866 ± 0.0047
K7EK07 and related entries (UniProt P84243+K7EK07),0.97 ± 0.11,1.01 ± 0.094,1.01 ± 0.084,1.08 ± 0.13,1.09 ± 0.15,1.16 ± 0.1
UniProt O43736 and related entries,1.03 ± 0.072,0.998 ± 0.013,0.967 ± 0.044,1 ± 0.017,0.979 ± 0.071,1.03 ± 0.062
PFDN6 (UniProt O15212),0.952 ± 0.029,0.976 ± 0.055,0.905 ± 0.029,0.892 ± 0.039,0.86 ± 0.018,0.85 ± 0.04
GNPAT (UniProt O15228),0.97 ± 0.021,0.896 ± 0.081,0.959 ± 0.028,0.922 ± 0.013,0.961 ± 0.024,0.893 ± 0.029
UniProt O00115 and related entries,0.989 ± 0.042,1.03 ± 0.069,0.97 ± 0.013,1.01 ± 0.027,0.939 ± 0.022,0.984 ± 0.013
UniProt O15037,1.01 ± 0.026,1.01 ± 0.018,1.01 ± 0.033,0.981 ± 0.04,0.942 ± 0.011,0.972 ± 0.026
SCO2 (UniProt O43819),0.972 ± 0.0067,0.949 ± 0.054,0.991 ± 0.04,0.95 ± 0.027,0.936 ± 0.015,0.934 ± 0.045
BACH1 (UniProt O14867),0.996 ± 0.051,1 ± 0.027,0.9979 ± 0.0049,1 ± 0.044,0.996 ± 0.043,1.02 ± 0.021
UniProt O43865,0.994 ± 0.035,1.03 ± 0.05,1.03 ± 0.036,1.02 ± 0.034,1 ± 0.056,1.04 ± 0.047
DENR (UniProt O43583),1.012 ± 0.0088,1.03 ± 0.053,0.979 ± 0.037,0.966 ± 0.031,0.97 ± 0.03,0.923 ± 0.062
NPC1 (UniProt O15118),1.01 ± 0.013,1.04 ± 0.086,1.017 ± 0.0094,0.992 ± 0.038,1.014 ± 0.0045,0.9825 ± 0.0087
UniProt O00291 and related entries,1.02 ± 0.021,1.06 ± 0.033,1.06 ± 0.025,1.04 ± 0.055,1.08 ± 0.036,1.11 ± 0.031
M0QYZ2 and related entries (UniProt P53680),0.913 ± 0.053,0.853 ± 0.06,0.911 ± 0.031,0.915 ± 0.034,1 ± 0.04,0.915 ± 0.065
TAX1BP3 (UniProt O14907),1.05 ± 0.015,1.05 ± 0.049,1.01 ± 0.033,1.03 ± 0.016,1.02 ± 0.023,1.04 ± 0.061
AIP (UniProt O00170),0.984 ± 0.038,1 ± 0.029,0.935 ± 0.051,0.934 ± 0.017,0.914 ± 0.023,0.894 ± 0.066
AKAP8 (UniProt O43823),1.01 ± 0.021,1.08 ± 0.14,1.06 ± 0.032,1.12 ± 0.059,1.12 ± 0.077,1.13 ± 0.09
UniProt O43852 and related entries,1.003 ± 0.0095,1.07 ± 0.095,0.955 ± 0.029,0.9609 ± 0.0071,0.926 ± 0.016,0.923 ± 0.045
K7ESQ2 and related entries (UniProt Q8NBT2),0.95 ± 0.057,0.998 ± 0.034,0.913 ± 0.065,0.85 ± 0.0095,0.835 ± 0.028,0.826 ± 0.064
SETD1A (UniProt O15047),0.978 ± 0.039,1 ± 0.022,1 ± 0.031,0.968 ± 0.019,0.949 ± 0.014,0.973 ± 0.03
UniProt O00442,1.01 ± 0.025,0.998 ± 0.094,1.02 ± 0.05,1 ± 0.028,1.04 ± 0.025,1 ± 0.042
K7ES11 and related entries (UniProt Q9C0C9),0.987 ± 0.031,1 ± 0.026,0.992 ± 0.014,1.01 ± 0.023,0.985 ± 0.012,1 ± 0.027
EEF2K (UniProt O00418),0.985 ± 0.018,0.962 ± 0.045,0.976 ± 0.02,0.958 ± 0.018,0.946 ± 0.031,0.941 ± 0.021
CLGN (UniProt O14967),1.03 ± 0.06,1.03 ± 0.082,1 ± 0.06,0.987 ± 0.051,0.994 ± 0.049,0.993 ± 0.07
PSMD9 (UniProt O00233),1.01 ± 0.034,1.06 ± 0.033,0.988 ± 0.062,0.947 ± 0.021,0.959 ± 0.034,0.92 ± 0.053

# Whole records as entered above:
# UniProt O43852 and related entries is listed as NP40-soluble protein abundance (concentration: 1mM): 1.003 ± 0.0095; NP40-soluble protein abundance (concentration: 2mM): 1.07 ± 0.095; NP40-soluble protein abundance (concentration: 4mM): 0.955 ± 0.029; NP40-soluble protein abundance (concentration: 6mM): 0.9609 ± 0.0071; NP40-soluble protein abundance (concentration: 8mM): 0.926 ± 0.016; NP40-soluble protein abundance (concentration: 10mM): 0.923 ± 0.045
# UniProt O15037 is listed as NP40-soluble protein abundance (concentration: 1mM): 1.01 ± 0.026; NP40-soluble protein abundance (concentration: 2mM): 1.01 ± 0.018; NP40-soluble protein abundance (concentration: 4mM): 1.01 ± 0.033; NP40-soluble protein abundance (concentration: 6mM): 0.981 ± 0.04; NP40-soluble protein abundance (concentration: 8mM): 0.942 ± 0.011; NP40-soluble protein abundance (concentration: 10mM): 0.972 ± 0.026
